US9371315B2, “N-(tetrazol-5-yl)- and N-(triazol-5-yl)arylcarboxamide salts and use thereof as herbicides” (BAYER CROPSCIENCE AG, priority 2012, dated 2016)
Some entries share one result that the patent states for a list of compounds. At least one compound was matched to its structure with a doubt left.

Key:
Format in all cases: in vivo
Echinochloa crus galli [1] = assay: Pre-emergence herbicidal action against harmful plants; conditions: 320 g/ha, assessed visually after 3 weeks vs untreated controls
Setaria viridis = assay: as above; conditions: 320 g/ha, assessed visually after 3 weeks vs untreated controls
Abutilon theophrasti = assay: as above; conditions: 320 g/ha, assessed visually after 3 weeks vs untreated controls
Amaranthus retroflexus = assay: as above; conditions: 320 g/ha, assessed visually after 3 weeks vs untreated controls
Matricaria inodora [2] = assay: as above; conditions: 320 g/ha, assessed visually after 3 weeks vs untreated controls
Stellaria media [3] = assay: as above; conditions: 320 g/ha, assessed visually after 3 weeks vs untreated controls
Viola tricolor = assay: as above; conditions: 320 g/ha, assessed visually after 3 weeks vs untreated controls
Veronica persica [4] = assay: as above; conditions: 320 g/ha, assessed visually after 3 weeks vs untreated controls
Echinochloa crus galli [5] = assay: Post-emergence herbicidal action against harmful plants; conditions: 80 g/ha, one-leaf stage, assessed visually after about 3 weeks vs untreated controls
Matricaria inodora [6] = assay: as above; conditions: 80 g/ha, one-leaf stage, assessed visually after about 3 weeks vs untreated controls
Pharbitis purpureum = assay: as above; conditions: 80 g/ha, one-leaf stage, assessed visually after about 3 weeks vs untreated controls
Stellaria media [7] = assay: as above; conditions: 80 g/ha, one-leaf stage, assessed visually after about 3 weeks vs untreated controls
Veronica persica [8] = assay: as above; conditions: 80 g/ha, one-leaf stage, assessed visually after about 3 weeks vs untreated controls

CCCn1nnnc1[N-]C(=O)c1ccc(C(F)(F)F)c(S(C)(=O)=O)c1C.C[N+](C)(C)CCO [1-14]
at least 80%: herbicidal activity in percent (%) (Echinochloa crus galli [1]) | herbicidal activity in percent (%) (Setaria viridis) | herbicidal activity in percent (%) (Abutilon theophrasti) | herbicidal activity in percent (%) (Amaranthus retroflexus) | herbicidal activity in percent (%) (Matricaria inodora [2]) | herbicidal activity in percent (%) (Stellaria media [3]) | herbicidal activity in percent (%) (Viola tricolor) | herbicidal activity in percent (%) (Veronica persica [4]) | herbicidal action in percent (%) (Echinochloa crus galli [5]) | herbicidal action in percent (%) (Matricaria inodora [6]) | herbicidal action in percent (%) (Pharbitis purpureum) | herbicidal action in percent (%) (Stellaria media [7]) | herbicidal action in percent (%) (Veronica persica [8])

COc1c(C(=O)[N-]c2nnnn2C)ccc(C(F)(F)F)c1SC.[Na+] [1-78]
at least 80%: herbicidal activity in percent (%) (Echinochloa crus galli [1]) | herbicidal activity in percent (%) (Setaria viridis) | herbicidal activity in percent (%) (Abutilon theophrasti) | herbicidal activity in percent (%) (Amaranthus retroflexus) | herbicidal activity in percent (%) (Matricaria inodora [2]) | herbicidal activity in percent (%) (Stellaria media [3]) | herbicidal activity in percent (%) (Viola tricolor) | herbicidal activity in percent (%) (Veronica persica [4]) | herbicidal action in percent (%) (Echinochloa crus galli [5]) | herbicidal action in percent (%) (Matricaria inodora [6]) | herbicidal action in percent (%) (Pharbitis purpureum) | herbicidal action in percent (%) (Stellaria media [7]) | herbicidal action in percent (%) (Veronica persica [8])

COc1c(C(=O)[N-]c2nnnn2C)ccc(C(F)(F)F)c1SC.C[N+](C)(C)CCO [1-79]
at least 80%: herbicidal activity in percent (%) (Echinochloa crus galli [1]) | herbicidal activity in percent (%) (Setaria viridis) | herbicidal activity in percent (%) (Abutilon theophrasti) | herbicidal activity in percent (%) (Amaranthus retroflexus) | herbicidal activity in percent (%) (Matricaria inodora [2]) | herbicidal activity in percent (%) (Stellaria media [3]) | herbicidal activity in percent (%) (Viola tricolor) | herbicidal activity in percent (%) (Veronica persica [4]) | herbicidal action in percent (%) (Echinochloa crus galli [5]) | herbicidal action in percent (%) (Matricaria inodora [6]) | herbicidal action in percent (%) (Pharbitis purpureum) | herbicidal action in percent (%) (Stellaria media [7]) | herbicidal action in percent (%) (Veronica persica [8])

COc1c(C(=O)[N-]c2nnnn2C)ccc(C(F)(F)F)c1[S+](C)[O-].[Na+] (stereo not shown) [1-80]
at least 80%: herbicidal activity in percent (%) (Echinochloa crus galli [1]) | herbicidal activity in percent (%) (Setaria viridis) | herbicidal activity in percent (%) (Abutilon theophrasti) | herbicidal activity in percent (%) (Amaranthus retroflexus) | herbicidal activity in percent (%) (Matricaria inodora [2]) | herbicidal activity in percent (%) (Stellaria media [3]) | herbicidal activity in percent (%) (Viola tricolor) | herbicidal activity in percent (%) (Veronica persica [4]) | herbicidal action in percent (%) (Echinochloa crus galli [5]) | herbicidal action in percent (%) (Matricaria inodora [6]) | herbicidal action in percent (%) (Pharbitis purpureum) | herbicidal action in percent (%) (Stellaria media [7]) | herbicidal action in percent (%) (Veronica persica [8])

COc1c(C(=O)[N-]c2nnnn2C)ccc(C(F)F)c1SC.[Na+] [1-84]
at least 80%: herbicidal activity in percent (%) (Echinochloa crus galli [1]) | herbicidal activity in percent (%) (Setaria viridis) | herbicidal activity in percent (%) (Abutilon theophrasti) | herbicidal activity in percent (%) (Amaranthus retroflexus) | herbicidal activity in percent (%) (Matricaria inodora [2]) | herbicidal activity in percent (%) (Stellaria media [3]) | herbicidal activity in percent (%) (Viola tricolor) | herbicidal activity in percent (%) (Veronica persica [4]) | herbicidal action in percent (%) (Echinochloa crus galli [5]) | herbicidal action in percent (%) (Matricaria inodora [6]) | herbicidal action in percent (%) (Pharbitis purpureum) | herbicidal action in percent (%) (Stellaria media [7]) | herbicidal action in percent (%) (Veronica persica [8])

COc1c(C(=O)[N-]c2nnnn2C)ccc(C(F)F)c1SC.C[N+](C)(C)CCO [1-86]
at least 80%: herbicidal activity in percent (%) (Echinochloa crus galli [1]) | herbicidal activity in percent (%) (Setaria viridis) | herbicidal activity in percent (%) (Abutilon theophrasti) | herbicidal activity in percent (%) (Amaranthus retroflexus) | herbicidal activity in percent (%) (Matricaria inodora [2]) | herbicidal activity in percent (%) (Stellaria media [3]) | herbicidal activity in percent (%) (Viola tricolor) | herbicidal activity in percent (%) (Veronica persica [4]) | herbicidal action in percent (%) (Echinochloa crus galli [5]) | herbicidal action in percent (%) (Matricaria inodora [6]) | herbicidal action in percent (%) (Pharbitis purpureum) | herbicidal action in percent (%) (Stellaria media [7]) | herbicidal action in percent (%) (Veronica persica [8])

CCn1nnnc1[N-]C(=O)c1ccc(C(F)F)c(SC)c1OC.[Na+] [1-87]
at least 80%: herbicidal activity in percent (%) (Echinochloa crus galli [1]) | herbicidal activity in percent (%) (Setaria viridis) | herbicidal activity in percent (%) (Abutilon theophrasti) | herbicidal activity in percent (%) (Amaranthus retroflexus) | herbicidal activity in percent (%) (Matricaria inodora [2]) | herbicidal activity in percent (%) (Stellaria media [3]) | herbicidal activity in percent (%) (Viola tricolor) | herbicidal activity in percent (%) (Veronica persica [4]) | herbicidal action in percent (%) (Echinochloa crus galli [5]) | herbicidal action in percent (%) (Matricaria inodora [6]) | herbicidal action in percent (%) (Pharbitis purpureum) | herbicidal action in percent (%) (Stellaria media [7]) | herbicidal action in percent (%) (Veronica persica [8])

CCn1nnnc1[N-]C(=O)c1ccc(C(F)F)c(SC)c1OC.C[N+](C)(C)CCO [1-89]
at least 80%: herbicidal activity in percent (%) (Echinochloa crus galli [1]) | herbicidal activity in percent (%) (Setaria viridis) | herbicidal activity in percent (%) (Abutilon theophrasti) | herbicidal activity in percent (%) (Amaranthus retroflexus) | herbicidal activity in percent (%) (Matricaria inodora [2]) | herbicidal activity in percent (%) (Stellaria media [3]) | herbicidal activity in percent (%) (Viola tricolor) | herbicidal activity in percent (%) (Veronica persica [4]) | herbicidal action in percent (%) (Echinochloa crus galli [5]) | herbicidal action in percent (%) (Matricaria inodora [6]) | herbicidal action in percent (%) (Pharbitis purpureum) | herbicidal action in percent (%) (Stellaria media [7]) | herbicidal action in percent (%) (Veronica persica [8])

COCc1c(S(C)(=O)=O)ccc(C(=O)[N-]c2nnnn2C)c1Cl.[Na+] [1-121]
at least 80%: herbicidal activity in percent (%) (Echinochloa crus galli [1]) | herbicidal activity in percent (%) (Setaria viridis) | herbicidal activity in percent (%) (Abutilon theophrasti) | herbicidal activity in percent (%) (Amaranthus retroflexus) | herbicidal activity in percent (%) (Matricaria inodora [2]) | herbicidal activity in percent (%) (Stellaria media [3]) | herbicidal activity in percent (%) (Viola tricolor) | herbicidal activity in percent (%) (Veronica persica [4]) | herbicidal action in percent (%) (Echinochloa crus galli [5]) | herbicidal action in percent (%) (Matricaria inodora [6]) | herbicidal action in percent (%) (Pharbitis purpureum) | herbicidal action in percent (%) (Stellaria media [7]) | herbicidal action in percent (%) (Veronica persica [8])

COCc1c(S(C)(=O)=O)ccc(C(=O)[N-]c2nnnn2C)c1Cl.[K+] [1-122]
at least 80%: herbicidal activity in percent (%) (Echinochloa crus galli [1]) | herbicidal activity in percent (%) (Setaria viridis) | herbicidal activity in percent (%) (Abutilon theophrasti) | herbicidal activity in percent (%) (Amaranthus retroflexus) | herbicidal activity in percent (%) (Matricaria inodora [2]) | herbicidal activity in percent (%) (Stellaria media [3]) | herbicidal activity in percent (%) (Viola tricolor) | herbicidal activity in percent (%) (Veronica persica [4]) | herbicidal action in percent (%) (Echinochloa crus galli [5]) | herbicidal action in percent (%) (Matricaria inodora [6]) | herbicidal action in percent (%) (Pharbitis purpureum) | herbicidal action in percent (%) (Stellaria media [7]) | herbicidal action in percent (%) (Veronica persica [8])

COCc1c(S(C)(=O)=O)ccc(C(=O)[N-]c2nnnn2C)c1Cl.C[N+](C)(C)CCO [1-124]
at least 80%: herbicidal activity in percent (%) (Echinochloa crus galli [1]) | herbicidal activity in percent (%) (Setaria viridis) | herbicidal activity in percent (%) (Abutilon theophrasti) | herbicidal activity in percent (%) (Amaranthus retroflexus) | herbicidal activity in percent (%) (Matricaria inodora [2]) | herbicidal activity in percent (%) (Stellaria media [3]) | herbicidal activity in percent (%) (Viola tricolor) | herbicidal activity in percent (%) (Veronica persica [4]) | herbicidal action in percent (%) (Echinochloa crus galli [5]) | herbicidal action in percent (%) (Matricaria inodora [6]) | herbicidal action in percent (%) (Pharbitis purpureum) | herbicidal action in percent (%) (Stellaria media [7]) | herbicidal action in percent (%) (Veronica persica [8])

COc1c(S(C)(=O)=O)ccc(C(=O)[N-]c2nnnn2C)c1Cl.[Na+] [1-131]
at least 80%: herbicidal activity in percent (%) (Echinochloa crus galli [1]) | herbicidal activity in percent (%) (Setaria viridis) | herbicidal activity in percent (%) (Abutilon theophrasti) | herbicidal activity in percent (%) (Amaranthus retroflexus) | herbicidal activity in percent (%) (Matricaria inodora [2]) | herbicidal activity in percent (%) (Stellaria media [3]) | herbicidal activity in percent (%) (Viola tricolor) | herbicidal activity in percent (%) (Veronica persica [4]) | herbicidal action in percent (%) (Echinochloa crus galli [5]) | herbicidal action in percent (%) (Matricaria inodora [6]) | herbicidal action in percent (%) (Pharbitis purpureum) | herbicidal action in percent (%) (Stellaria media [7]) | herbicidal action in percent (%) (Veronica persica [8])

CCOc1c(S(C)(=O)=O)ccc(C(=O)[N-]c2nnnn2C)c1Cl.[Na+] [1-133]
at least 80%: herbicidal activity in percent (%) (Echinochloa crus galli [1]) | herbicidal activity in percent (%) (Setaria viridis) | herbicidal activity in percent (%) (Abutilon theophrasti) | herbicidal activity in percent (%) (Amaranthus retroflexus) | herbicidal activity in percent (%) (Matricaria inodora [2]) | herbicidal activity in percent (%) (Stellaria media [3]) | herbicidal activity in percent (%) (Viola tricolor) | herbicidal activity in percent (%) (Veronica persica [4]) | herbicidal action in percent (%) (Echinochloa crus galli [5]) | herbicidal action in percent (%) (Matricaria inodora [6]) | herbicidal action in percent (%) (Pharbitis purpureum) | herbicidal action in percent (%) (Stellaria media [7]) | herbicidal action in percent (%) (Veronica persica [8])
